± gives the standard deviation of the averaged measurements. Only a part is listed here, and it is no random draw. Most entries show no effect beyond the scatter of the controls.
Compound: Nc1ncnc2c1ncn2[C@@H]1O[C@H](COP(=O)(O)OP(=O)(O)OP(=O)(O)O)[C@@H](O)[C@H]1O [adenosine triphosphate]
Experiment: NP40-soluble protein abundance relative to vehicle (solubility fold change) (ratio); higher = more soluble protein in presence of ATP
Summary of the method: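 Data come from three independent experiments in which Dounce-homogenised Jurkat crude lysate was treated at eight concentrations from 0.1 to 10 mM. Treatment ran 10 min at room temperature and then 3 min at 37 °C, after which 0.8% NP40 and benzonase were added for 60 min at 4 °C before ultracentrifugation. The supernatant underwent TMT labelling and LC-MS/MS, and vsn-normalised intensities were expressed as fold change against the detergent-processed vehicle in each replicate.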

The chains behind the UniProt entries cited, without tags or fusion partners. Where a name states a change or a piece, a line headed by the entry shows the natural chain unless it says otherwise.
UniProt Q7Z7E8: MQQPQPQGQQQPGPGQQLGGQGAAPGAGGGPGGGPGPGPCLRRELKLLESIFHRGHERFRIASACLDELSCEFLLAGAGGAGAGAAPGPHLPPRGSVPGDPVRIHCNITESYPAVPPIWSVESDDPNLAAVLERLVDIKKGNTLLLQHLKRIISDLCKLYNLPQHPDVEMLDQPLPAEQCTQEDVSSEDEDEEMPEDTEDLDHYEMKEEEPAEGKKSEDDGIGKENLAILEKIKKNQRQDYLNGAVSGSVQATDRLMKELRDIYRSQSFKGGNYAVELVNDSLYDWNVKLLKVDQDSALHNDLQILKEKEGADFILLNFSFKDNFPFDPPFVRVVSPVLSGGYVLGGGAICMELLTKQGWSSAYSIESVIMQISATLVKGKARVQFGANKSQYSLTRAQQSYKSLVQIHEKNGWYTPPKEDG
UniProt Q6ZWJ1: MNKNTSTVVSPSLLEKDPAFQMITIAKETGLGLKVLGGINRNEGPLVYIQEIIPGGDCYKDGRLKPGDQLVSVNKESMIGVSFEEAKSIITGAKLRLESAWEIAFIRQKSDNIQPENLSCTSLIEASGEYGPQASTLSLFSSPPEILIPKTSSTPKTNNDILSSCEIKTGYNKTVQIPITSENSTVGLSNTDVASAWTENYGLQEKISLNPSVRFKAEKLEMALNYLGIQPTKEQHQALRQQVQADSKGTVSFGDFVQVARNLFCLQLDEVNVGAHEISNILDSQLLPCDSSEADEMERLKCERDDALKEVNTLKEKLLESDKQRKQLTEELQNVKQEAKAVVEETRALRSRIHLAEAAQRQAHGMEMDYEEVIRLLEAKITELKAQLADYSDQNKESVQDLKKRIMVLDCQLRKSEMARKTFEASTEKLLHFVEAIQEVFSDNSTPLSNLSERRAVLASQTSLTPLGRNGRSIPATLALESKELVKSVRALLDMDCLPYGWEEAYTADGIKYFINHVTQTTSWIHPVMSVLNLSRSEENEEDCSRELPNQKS
UniProt Q7Z6V5: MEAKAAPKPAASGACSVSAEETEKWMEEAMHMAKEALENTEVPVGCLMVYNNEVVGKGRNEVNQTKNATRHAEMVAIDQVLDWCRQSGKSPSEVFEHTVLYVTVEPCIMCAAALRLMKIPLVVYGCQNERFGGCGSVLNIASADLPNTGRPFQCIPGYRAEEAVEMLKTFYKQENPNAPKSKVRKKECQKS
UniProt Q7Z6L1: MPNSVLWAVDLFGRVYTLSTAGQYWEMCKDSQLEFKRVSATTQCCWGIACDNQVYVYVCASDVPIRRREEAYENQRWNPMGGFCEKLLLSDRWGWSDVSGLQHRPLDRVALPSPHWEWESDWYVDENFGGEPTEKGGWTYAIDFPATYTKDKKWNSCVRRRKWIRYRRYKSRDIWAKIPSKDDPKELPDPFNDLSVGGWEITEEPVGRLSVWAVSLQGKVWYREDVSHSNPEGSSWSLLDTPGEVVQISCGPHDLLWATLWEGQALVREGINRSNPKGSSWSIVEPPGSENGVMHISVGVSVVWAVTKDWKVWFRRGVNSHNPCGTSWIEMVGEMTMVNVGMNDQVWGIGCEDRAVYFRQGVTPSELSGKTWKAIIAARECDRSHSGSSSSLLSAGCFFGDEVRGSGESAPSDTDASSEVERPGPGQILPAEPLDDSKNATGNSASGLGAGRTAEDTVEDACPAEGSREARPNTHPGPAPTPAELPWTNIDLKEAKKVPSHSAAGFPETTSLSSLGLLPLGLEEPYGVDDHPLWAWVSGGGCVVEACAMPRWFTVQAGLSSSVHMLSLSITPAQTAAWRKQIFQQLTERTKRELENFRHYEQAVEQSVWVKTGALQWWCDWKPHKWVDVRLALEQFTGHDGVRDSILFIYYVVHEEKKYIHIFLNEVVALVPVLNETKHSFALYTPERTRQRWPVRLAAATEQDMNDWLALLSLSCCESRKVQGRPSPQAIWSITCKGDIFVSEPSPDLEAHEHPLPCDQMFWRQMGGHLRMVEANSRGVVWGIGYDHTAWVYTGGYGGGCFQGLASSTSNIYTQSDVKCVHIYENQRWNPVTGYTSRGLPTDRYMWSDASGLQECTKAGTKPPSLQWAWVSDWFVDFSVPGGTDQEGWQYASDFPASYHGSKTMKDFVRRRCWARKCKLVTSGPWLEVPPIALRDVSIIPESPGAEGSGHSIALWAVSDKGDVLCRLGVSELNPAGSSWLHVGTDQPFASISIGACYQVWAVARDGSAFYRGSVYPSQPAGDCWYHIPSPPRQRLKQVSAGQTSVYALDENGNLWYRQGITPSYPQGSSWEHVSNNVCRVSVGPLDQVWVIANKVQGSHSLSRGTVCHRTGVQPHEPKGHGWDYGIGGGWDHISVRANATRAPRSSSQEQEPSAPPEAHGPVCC
UniProt Q7Z7A3: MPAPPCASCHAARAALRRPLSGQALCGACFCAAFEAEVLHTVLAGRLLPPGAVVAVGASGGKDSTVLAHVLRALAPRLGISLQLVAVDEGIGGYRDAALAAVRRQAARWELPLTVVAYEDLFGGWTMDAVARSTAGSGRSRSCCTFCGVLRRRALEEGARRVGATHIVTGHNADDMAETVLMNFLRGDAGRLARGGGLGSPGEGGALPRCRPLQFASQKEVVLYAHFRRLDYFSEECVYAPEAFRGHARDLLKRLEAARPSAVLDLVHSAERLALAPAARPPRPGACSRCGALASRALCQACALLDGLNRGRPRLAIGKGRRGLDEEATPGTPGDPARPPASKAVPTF
UniProt Q6XZF7: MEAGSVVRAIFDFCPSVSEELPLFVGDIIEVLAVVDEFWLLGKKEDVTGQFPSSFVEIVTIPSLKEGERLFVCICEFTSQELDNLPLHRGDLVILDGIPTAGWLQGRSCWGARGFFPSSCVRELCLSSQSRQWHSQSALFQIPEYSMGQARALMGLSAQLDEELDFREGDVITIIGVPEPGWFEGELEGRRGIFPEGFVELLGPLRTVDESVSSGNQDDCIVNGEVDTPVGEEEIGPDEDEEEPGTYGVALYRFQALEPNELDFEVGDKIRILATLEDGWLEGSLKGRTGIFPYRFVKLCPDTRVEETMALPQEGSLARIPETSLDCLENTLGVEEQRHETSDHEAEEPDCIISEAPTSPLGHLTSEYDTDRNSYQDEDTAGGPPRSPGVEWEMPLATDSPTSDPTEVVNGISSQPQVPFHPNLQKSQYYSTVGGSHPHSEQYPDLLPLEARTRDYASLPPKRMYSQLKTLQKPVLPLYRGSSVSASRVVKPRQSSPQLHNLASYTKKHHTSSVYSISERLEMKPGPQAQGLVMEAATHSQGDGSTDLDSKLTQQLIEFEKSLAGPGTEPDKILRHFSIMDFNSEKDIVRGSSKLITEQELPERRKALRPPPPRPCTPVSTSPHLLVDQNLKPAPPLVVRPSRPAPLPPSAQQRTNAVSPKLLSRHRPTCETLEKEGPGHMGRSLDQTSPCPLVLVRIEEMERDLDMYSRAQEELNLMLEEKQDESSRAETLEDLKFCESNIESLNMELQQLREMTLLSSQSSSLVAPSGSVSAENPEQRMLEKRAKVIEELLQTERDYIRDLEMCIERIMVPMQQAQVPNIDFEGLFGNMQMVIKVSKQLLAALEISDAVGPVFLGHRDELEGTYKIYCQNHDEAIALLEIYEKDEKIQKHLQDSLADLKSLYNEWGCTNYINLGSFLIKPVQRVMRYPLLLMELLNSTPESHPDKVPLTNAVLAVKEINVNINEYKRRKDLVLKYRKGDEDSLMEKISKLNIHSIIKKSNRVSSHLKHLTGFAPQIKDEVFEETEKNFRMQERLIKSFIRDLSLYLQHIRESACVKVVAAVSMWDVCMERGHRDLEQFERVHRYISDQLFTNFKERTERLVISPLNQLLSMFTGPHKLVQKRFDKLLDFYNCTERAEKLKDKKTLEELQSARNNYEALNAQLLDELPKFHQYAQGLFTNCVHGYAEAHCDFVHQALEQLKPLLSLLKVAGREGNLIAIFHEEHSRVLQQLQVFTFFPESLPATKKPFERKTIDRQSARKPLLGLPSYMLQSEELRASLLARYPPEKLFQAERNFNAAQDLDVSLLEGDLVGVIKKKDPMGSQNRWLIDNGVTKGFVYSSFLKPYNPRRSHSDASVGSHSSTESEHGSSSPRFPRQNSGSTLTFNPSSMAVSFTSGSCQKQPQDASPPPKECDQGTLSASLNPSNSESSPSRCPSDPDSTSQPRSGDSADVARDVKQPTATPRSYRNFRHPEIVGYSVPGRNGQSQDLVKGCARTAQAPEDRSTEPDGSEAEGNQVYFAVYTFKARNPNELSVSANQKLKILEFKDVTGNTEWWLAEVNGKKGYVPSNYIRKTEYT
UniProt Q6ZS11: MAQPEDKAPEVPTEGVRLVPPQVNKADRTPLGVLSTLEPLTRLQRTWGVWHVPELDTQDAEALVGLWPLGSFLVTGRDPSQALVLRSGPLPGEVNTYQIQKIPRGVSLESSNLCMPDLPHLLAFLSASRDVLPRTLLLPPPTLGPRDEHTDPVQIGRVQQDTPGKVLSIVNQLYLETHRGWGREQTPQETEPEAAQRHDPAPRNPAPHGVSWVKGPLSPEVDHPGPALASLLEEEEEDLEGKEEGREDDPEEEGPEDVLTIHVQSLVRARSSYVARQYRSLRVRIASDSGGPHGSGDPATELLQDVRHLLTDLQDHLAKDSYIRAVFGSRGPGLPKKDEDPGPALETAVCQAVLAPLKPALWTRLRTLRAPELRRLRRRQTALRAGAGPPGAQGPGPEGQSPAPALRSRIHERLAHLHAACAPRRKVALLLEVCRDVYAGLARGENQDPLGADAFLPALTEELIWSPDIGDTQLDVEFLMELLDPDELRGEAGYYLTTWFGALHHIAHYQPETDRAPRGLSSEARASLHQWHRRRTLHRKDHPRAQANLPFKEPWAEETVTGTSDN
UniProt Q7Z4Q2: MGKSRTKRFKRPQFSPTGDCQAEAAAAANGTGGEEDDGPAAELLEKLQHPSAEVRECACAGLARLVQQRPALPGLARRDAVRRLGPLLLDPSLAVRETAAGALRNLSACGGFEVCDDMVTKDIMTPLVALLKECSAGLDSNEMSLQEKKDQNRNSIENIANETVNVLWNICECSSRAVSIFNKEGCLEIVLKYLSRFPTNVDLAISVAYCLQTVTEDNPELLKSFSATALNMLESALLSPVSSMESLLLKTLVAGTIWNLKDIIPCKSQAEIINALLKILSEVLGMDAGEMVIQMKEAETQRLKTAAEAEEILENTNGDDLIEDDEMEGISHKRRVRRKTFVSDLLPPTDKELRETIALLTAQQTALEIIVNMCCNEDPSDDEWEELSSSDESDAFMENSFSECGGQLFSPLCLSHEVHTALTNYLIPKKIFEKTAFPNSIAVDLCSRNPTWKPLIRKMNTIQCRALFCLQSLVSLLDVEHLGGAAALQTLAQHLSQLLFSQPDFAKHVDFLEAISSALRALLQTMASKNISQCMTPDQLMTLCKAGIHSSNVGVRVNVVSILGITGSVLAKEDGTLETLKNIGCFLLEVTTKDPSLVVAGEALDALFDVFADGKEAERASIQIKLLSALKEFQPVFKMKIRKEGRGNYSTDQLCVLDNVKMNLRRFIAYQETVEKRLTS
UniProt Q6PH81: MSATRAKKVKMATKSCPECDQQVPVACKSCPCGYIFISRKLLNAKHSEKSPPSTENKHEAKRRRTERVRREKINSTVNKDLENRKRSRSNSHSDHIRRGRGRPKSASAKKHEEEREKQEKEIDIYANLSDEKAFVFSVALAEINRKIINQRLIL
UniProt Q7Z7A4: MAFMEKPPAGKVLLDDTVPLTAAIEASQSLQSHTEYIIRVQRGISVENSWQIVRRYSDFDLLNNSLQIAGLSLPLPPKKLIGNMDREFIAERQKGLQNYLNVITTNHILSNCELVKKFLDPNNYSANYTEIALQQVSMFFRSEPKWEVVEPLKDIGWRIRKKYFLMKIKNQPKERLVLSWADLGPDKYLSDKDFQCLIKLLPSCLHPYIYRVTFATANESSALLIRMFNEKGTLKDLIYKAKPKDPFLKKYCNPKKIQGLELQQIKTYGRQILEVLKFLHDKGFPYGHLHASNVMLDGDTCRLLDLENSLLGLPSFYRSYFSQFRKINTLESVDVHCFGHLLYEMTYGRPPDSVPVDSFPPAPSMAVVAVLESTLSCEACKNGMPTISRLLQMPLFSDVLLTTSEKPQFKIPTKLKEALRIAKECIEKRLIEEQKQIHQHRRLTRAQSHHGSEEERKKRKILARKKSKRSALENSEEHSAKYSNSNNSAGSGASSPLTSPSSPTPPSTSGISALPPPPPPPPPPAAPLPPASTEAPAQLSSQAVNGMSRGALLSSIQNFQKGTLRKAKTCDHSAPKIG
UniProt Q7Z7C8, whole entry: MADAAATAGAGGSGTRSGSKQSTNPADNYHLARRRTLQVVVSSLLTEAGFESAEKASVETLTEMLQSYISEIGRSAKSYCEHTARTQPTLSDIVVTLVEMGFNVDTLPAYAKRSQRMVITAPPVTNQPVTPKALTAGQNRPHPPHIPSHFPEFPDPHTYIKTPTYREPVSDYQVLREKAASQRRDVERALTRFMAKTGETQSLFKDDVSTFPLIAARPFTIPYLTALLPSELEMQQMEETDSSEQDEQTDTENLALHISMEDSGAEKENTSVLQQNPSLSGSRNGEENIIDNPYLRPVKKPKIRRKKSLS

Target	NP40-soluble protein abundance (concentration: 0.1mM)	NP40-soluble protein abundance (concentration: 0.5mM)
UBE2Q1 (UniProt Q7Z7E8)	1.01 ± 0.048	1.01 ± 0.024
UniProt Q7Z422 and related entries	0.886 ± 0.1	0.837 ± 0.11
UniProt Q7L099-2|Q7L099-3|Q7L099-4	0.99 ± 0.035	1 ± 0.061
UniProt Q6UXN9	1.05 ± 0.081	1.05 ± 0.024
CYFIP1 (UniProt Q7L576)	1.06 ± 0.091	1.07 ± 0.049
UniProt Q7L5D6	1 ± 0.031	0.923 ± 0.027
UniProt Q6ZUT1 and related entries	0.958 ± 0.04	0.864 ± 0.12
UniProt Q6UXH1 and related entries	0.998 ± 0.033	0.948 ± 0.08
UniProt Q6ZS86 and related entries	1.03 ± 0.083	1.07 ± 0.091
UniProt Q7Z333 and related entries	0.966 ± 0.058	1.025 ± 0.0044
UniProt Q86UA6 and related entries	1.05 ± 0.12	1.07 ± 0.17
UniProt Q7Z3K3 and related entries	1 ± 0.029	1.02 ± 0.057
MFSD6 (UniProt Q6ZSS7)	0.957 ± 0.033	0.928 ± 0.045
UniProt Q7Z7G8 and related entries	0.892 ± 0.079	0.883 ± 0.079
UniProt Q7Z3B4 and related entries	1.02 ± 0.031	1.01 ± 0.04
UniProt Q86U38	0.94 ± 0.017	0.978 ± 0.058
STXBP4 (UniProt Q6ZWJ1)	1.01 ± 0.03	1 ± 0.058
UniProt Q7Z2Z2	1.04 ± 0.055	1.05 ± 0.049
UniProt Q76FK4 and related entries	1.01 ± 0.023	1.05 ± 0.042
TRAPPC5 (UniProt Q8IUR0)	0.952 ± 0.036	0.904 ± 0.091

Individual results from above:
UniProt Q7Z333 and related entries | NP40-soluble protein abundance (concentration: 0.5mM): 1.025 ± 0.0044
UniProt Q7Z7G8 and related entries | NP40-soluble protein abundance (concentration: 0.1mM): 0.892 ± 0.079
UniProt Q7Z3K3 and related entries | NP40-soluble protein abundance (concentration: 0.1mM): 1 ± 0.029
UniProt Q76FK4 and related entries | NP40-soluble protein abundance (concentration: 0.1mM): 1.01 ± 0.023

Going on with the list.

Target	NP40-soluble protein abundance (concentration: 0.1mM)	NP40-soluble protein abundance (concentration: 0.5mM)
UniProt Q71F23	0.981 ± 0.024	0.909 ± 0.19
UniProt Q6ZN18 and related entries	1.3 ± 0.16	1.14 ± 0.17
ADAT2 (UniProt Q7Z6V5)	0.899 ± 0.078	0.88 ± 0.12
UniProt Q7Z6L1 and related entries	1.03 ± 0.05	0.976 ± 0.082
SMG6 (UniProt Q86US8)	1.03 ± 0.019	1.23 ± 0.038
PARS2 (UniProt Q7L3T8)	0.991 ± 0.041	1.05 ± 0.079
UniProt Q7Z434 and related entries	0.9761 ± 0.0046	0.9659 ± 0.0082
UniProt Q7Z460-4	0.989 ± 0.015	1.06 ± 0.029
UniProt Q86YB8	0.934 ± 0.064	0.963 ± 0.059
METTL3 (UniProt Q86U44)	1.03 ± 0.059	1.04 ± 0.049
UniProt Q86V48 and related entries	0.948 ± 0.023	0.963 ± 0.036
RBBP6 (UniProt Q7Z6E9)	1.03 ± 0.029	1.13 ± 0.071
GPR180 (UniProt Q86V85)	0.91 ± 0.12	1.08 ± 0.014
UniProt Q7Z7A3	0.9703 ± 0.0062	1.02 ± 0.16
UniProt Q71SY5 and related entries	0.904 ± 0.08	0.969 ± 0.12
UniProt Q86TB9 and related entries	0.976 ± 0.027	0.988 ± 0.03
RPS19BP1 (UniProt Q86WX3)	0.979 ± 0.066	1.11 ± 0.091
DNMBP (UniProt Q6XZF7)	1.05 ± 0.077	1.02 ± 0.076
UniProt Q7RTV0	1.04 ± 0.016	1.11 ± 0.035
UniProt Q7Z3J2 and related entries	1.06 ± 0.032	1.02 ± 0.016

Target	NP40-soluble protein abundance (concentration: 0.1mM)	NP40-soluble protein abundance (concentration: 0.5mM)
UniProt Q6UWP7 and related entries	1.04 ± 0.053	1.03 ± 0.074
RINL (UniProt Q6ZS11)	1.01 ± 0.019	0.993 ± 0.026
CHMP1B (UniProt Q7LBR1)	0.963 ± 0.062	0.936 ± 0.043
TICAM1 (UniProt Q8IUC6)	0.874 ± 0.02	0.953 ± 0.084
UniProt Q7Z7F0	0.994 ± 0.026	0.994 ± 0.03
PRPF39 (UniProt Q86UA1)	1.06 ± 0.043	1.004 ± 0.0043
UniProt Q86X76-2	1.05 ± 0.06	1.02 ± 0.074
HEATR3 (UniProt Q7Z4Q2)	0.997 ± 0.027	1.03 ± 0.038
C16orf87 (UniProt Q6PH81)	0.966 ± 0.094	0.969 ± 0.048
SND1 (UniProt Q7KZF4)	1.03 ± 0.06	1.05 ± 0.054
UniProt Q6ZNE5 and related entries	0.93 ± 0.12	0.962 ± 0.02
UniProt Q6PJW8 and related entries	1.04 ± 0.031	0.994 ± 0.032
UniProt Q6PIF6	1.04 ± 0.067	1.03 ± 0.011
UniProt Q6UW63	1 ± 0.14	0.998 ± 0.1
UniProt Q7Z7A4 and related entries	0.993 ± 0.093	0.972 ± 0.035
UniProt Q7Z7C8 and related entries	0.985 ± 0.081	1.01 ± 0.034
UniProt Q6PHR2 and related entries	1.02 ± 0.032	1.09 ± 0.039
UniProt Q6UN15 and related entries	0.899 ± 0.09	1.09 ± 0.13
UniProt Q6UXB8 and related entries	0.996 ± 0.026	0.983 ± 0.024
RAB11FIP1 (UniProt Q6WKZ4)	1.04 ± 0.026	1.03 ± 0.058
